Measurements reported in PubChem BioAssay AID1688 (National Center for Advancing Translational Sciences (NCATS), 2009).
In all, about 220,000 compounds went through this assay and about 2,400 (1.1%) were called active. This list was built around the results that the source calls inconclusive (neither active nor inactive); the mix of calls is not that of the screen. The call rests on the fitted dose curve; in most records, active means well fitted inhibition curve with a large enough effect; inconclusive means small, poorly fitted or top-dose-only effect, or effect the other way; inactive means no such curve, though single readings can be large or run the other way. A potency beside an inconclusive call is a rough fit, not a confirmed value.

Assay: qHTS Multiplex Assay to Identify Dual Action Probes in a Cell Model of Huntington: Aggregate Formation (GFP); further: nearly all actives have a fitted effect of over 60% in size
Details: PC12 HttQ103-GFP aggregates, Acumen cytometry, 40 h; activity change, negative = inhibition: at 46.1 µM (top of the series) unless noted
Outline: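 Aggregate formation scored by laser-scanning cytometer (488 excitation, 500–530 emission) in lysed PC12 cells expressing Q103-GFP after 100 nM tebufenozide induction; library tested in dose series, with ATPLite reagent added in the multiplex.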
On the % scale 0 is the no-effect control and ±100 the full control effect; potency means the concentration at half of the fitted maximal effect.

Structure (SMILES) | Potency | activity change, negative = inhibition
CC(=O)Nc1ccc(NC(=O)c2ccc(NS(=O)(=O)c3cc(C(C)(C)C)ccc3C)cc2)cc1 | inconclusive: 35.5 µM [inhibitor, single point] | 
CCN1CCN(c2ccc(NC(=O)c3ccc([N+](=O)[O-])o3)cc2Cl)CC1 | active: 12.6 µM | 
CC(C)(C)c1ccc(C(=O)Nn2c(CCC(=O)O)ccc2-c2cccs2)cc1 | inconclusive: 35.5 µM [inhibitor, single point] | 
O=C(CSc1nnc2n1CCCN2C(=S)Nc1ccc(Cl)cc1)c1ccccc1 | inconclusive: 25.1 µM [inhibitor, single point] | 
c1ccc(-c2csc3ncnc(NCC4COc5ccccc5O4)c23)cc1 (stereo not given) | active: 8.91 µM | 
Cc1c(C#N)c(NC(=O)CCl)n(Cc2ccccc2)c1C | active: 3.98 µM | 
O=C(Nc1ccc(C(=O)N2CCOCC2)cc1)c1cccc([N+](=O)[O-])c1 | inactive | 
O=C(CCS(=O)(=O)Cc1ccccc1)N1CCc2ccccc2C1 | inactive | 
Oc1ccc(N=Cc2ccc(O)c(O)c2)cc1 |  | inactive: 7.61% [at 9.22 µM]
COc1ccc(N2CCN(C(=O)c3ccc(NS(=O)(=O)c4cccc(F)c4)cc3)CC2)cc1 | inconclusive: 7.08 µM [inhibitor, partial curve, poor fit] | 
CCC(=O)Nc1cccc(NC(=S)NC(=O)c2cccc(C)c2)c1 | inactive | 
O=C(Nc1ccccn1)c1csc2c1CCCC2 |  | inactive: -7.37% [at 9.22 µM]
O=C(Cc1ccccc1)NC1(O)C(=O)c2ccccc2C1=O | inconclusive: 0.316 µM [activator, partial curve] | 
CC1=C(C)/C(=N/OC(=O)c2cccc([N+](=O)[O-])c2)C=CC1=O | inconclusive: 35.5 µM [inhibitor, single point] | 
CC(C)C(=O)Nc1ccc(N2CCN(c3ccc(F)cc3)CC2)cc1 | inactive | 
CCOC(=O)C1=C(O)c2ccccc2C(=O)/C1=C\c1ccc(CC)cc1 | inactive | 
COC(=O)CS(=O)(=O)c1nnc([C@H](Cc2ccccc2)NC(=O)OC(C)(C)C)o1 | inconclusive: 25.1 µM [inhibitor, single point] | 
CC(=O)Nc1ccc(Nc2cc(C)nc3c(-c4ccc(Cl)cc4)cnn23)cc1 | inconclusive: 35.5 µM [inhibitor, single point] | 
CC(C)(C)c1cc(NC(=O)Nc2ccc(Cl)cc2Cl)no1 | inconclusive: 1.26 µM [activator, single point] | 
CCOc1cccc(CNc2ccc(O)cc2)c1OCc1ccc(Cl)cc1Cl | inconclusive: 35.5 µM [inhibitor, single point] | 
Cc1nc2sc3c(NCc4ccco4)ncnc3c2c2c1COC(C)(C)C2 | inconclusive: 10 µM [inhibitor, partial curve] | 
Cc1ccc(Oc2ccc(NC(=O)CSc3n[nH]c(N)n3)cc2)cc1 | inconclusive: 14.1 µM [inhibitor, single point] | 
Cc1cccc2sc(NC(=O)CN(C)S(=O)(=O)c3ccc(Br)s3)nc12 | inconclusive: 35.5 µM [inhibitor, single point] | 

Structure (SMILES) | Potency | activity change, negative = inhibition
CC(C)(C)c1ccc(NC(=O)CNC2CCCc3ccccc32)cc1 (stereo not given) | inconclusive: 25.1 µM [inhibitor, single point] | 
COc1ccc(COC(=O)C2=C(C)NC(=O)NC2c2ccc(O)c(OC)c2)cc1 (stereo not given) | inconclusive: 14.1 µM [activator, partial curve] | 
COc1ccccc1C(=O)N(Cc1ccco1)C1CCS(=O)(=O)C1 (stereo not given) | inactive | 
Brc1ccc(-c2cn3nc4c(nc3n2)CCCC4)cc1 | inactive | 
CC1CCN(CC(=O)NCc2ccccc2)CC1 | active: 2.51 µM | 
COc1ccc(C2=Nn3c(nnc3-c3ccccc3OC)SC2)cc1OC | inconclusive: 6.31 µM [activator, full curve] | 
O=[N+]([O-])c1ccc(N/N=C/c2c[nH]c3ccccc23)c(S(=O)(=O)Nc2ccc(Cl)cc2)c1 | inconclusive: 22.4 µM [inhibitor, single point] | 
CCCc1nc2ccccc2c(=O)n1/N=C/c1ccc(O)cc1 | inconclusive: 8.91 µM [inhibitor, partial curve, poor fit] | 
O=C(O)C1C2CCC(O2)C1C(=O)Nc1ccc(F)cc1 (stereo not given) |  | inactive: 11.4% [at 9.22 µM]
COc1ccc(/C=C/C(=O)OCC(=O)Nc2ccc(OC)c(S(=O)(=O)N3CCCCC3)c2)cc1 | inconclusive: 5.62 µM [inhibitor, single point] | 
CC1=C(C#N)C(c2cn(-c3ccccc3)nc2-c2cccs2)C(C#N)=C(C)N1 | inactive | 
CCc1ccc(C(=O)c2cncc(Br)c2)cc1 | active: 20 µM | 
CN(C)S(=O)(=O)c1ccc2c(c1)nc(CCC(=O)NCc1ccc(Cl)cc1)n2C | inconclusive: 6.31 µM [activator, partial curve] | 
O=C(OCC(=O)c1ccc[nH]1)c1ccccc1 | inactive | 
CN(C)S(=O)(=O)c1ccc2[nH]cc(/C=C/c3nc4ccccc4c(=O)n3-c3ccccc3)c2c1 | inconclusive: 8.91 µM [activator, partial curve, poor fit] | 
NS(=O)(=O)c1ccc(CCNC(=O)CN2CCCCCC2)cc1 | inconclusive: 5.62 µM [activator, single point] | 
CC(C)CCn1c(CN2CCN(C(=O)c3ccco3)CC2)nc2c1c(=O)n(C)c(=O)n2C | inconclusive: 11.2 µM [activator, partial curve] | 
COc1ccc(NC(=O)CSc2ncccc2C(=O)OC(C)C)cc1OC | inconclusive: 6.31 µM [inhibitor, full curve] | 
CCN(CC)P(=O)(Nc1cccc(C(F)(F)F)c1)c1ccc(N(C)C)cc1NC(=O)c1ccco1 (stereo not given) | inconclusive: 15.8 µM [inhibitor, single point] | 
C#CCOCCOCCOCCNc1nc(N2CCN(C(=O)[C@H]([C@@H](C)CC)n3cc([C@@H](N)Cc4ccc(O)cc4)nn3)CC2)nc(N2CCN(C(=O)[C@H](CCCCN)n3cc([C@@H](N)CC(C)C)nn3)CC2)n1 |  | inactive: 21.4% [at 9.22 µM]
OCC1(CCOc2ccccc2)CCN(C2Cc3ccccc3C2)CC1 | inactive | 
O=C(CN1C(=O)NC2(CCCc3ccccc32)C1=O)NCc1ccco1 (stereo not given) | inactive | 
CC(C)C(=O)Nc1nc2cc3c(cc2s1)OCO3 | inconclusive: 25.1 µM [inhibitor, single point] | 
COc1ccc([C@H]2Oc3cc(O)cc(O)c3C(=O)C2[C@@H]2C(=O)c3c(O)cc(O)cc3O[C@@H]2c2ccc(OC)cc2)cc1 (stereo not given in full) | inconclusive: 1.12 µM [activator, partial curve] | 

Among those listed so far, these have a nitro group on carbon:
Structure (SMILES) | Potency | activity change, negative = inhibition
CCN1CCN(c2ccc(NC(=O)c3ccc([N+](=O)[O-])o3)cc2Cl)CC1 | active: 12.6 µM | 
O=C(Nc1ccc(C(=O)N2CCOCC2)cc1)c1cccc([N+](=O)[O-])c1 | inactive | 
CC1=C(C)/C(=N/OC(=O)c2cccc([N+](=O)[O-])c2)C=CC1=O | inconclusive: 35.5 µM [inhibitor, single point] | 
O=[N+]([O-])c1ccc(N/N=C/c2c[nH]c3ccccc23)c(S(=O)(=O)Nc2ccc(Cl)cc2)c1 | inconclusive: 22.4 µM [inhibitor, single point] | 

The list goes on:

Structure (SMILES) | Potency | activity change, negative = inhibition
Cc1cccc(-n2c(C)cc(C(=O)NC3CCCCC3)c2C)c1 | inactive | 
CN=C1S/C(=C\c2cc(C)n(-c3ccccc3F)c2C)C(=O)N1C | inconclusive: 12.6 µM [inhibitor, single point] | 
Clc1ccc(Nc2ncn[nH]2)c(Cl)c1 |  | inactive: -12.2% [at 9.22 µM]
CCOCCCNC(=S)N1C2CCC1CC(NC(=O)NC1CCCCC1)C2 (stereo not given) | inactive | 
CC[N+]1(CC)CC2=Cc3c(ccc4ccccc34)C(C)C2C1 (stereo not given) |  | inactive: 6.88% [at 9.22 µM]
CCCCNC(=O)Cn1cnc2sc(C(=O)OCC)c(C)c2c1=O | inconclusive: 35.5 µM [activator, single point] | 
Cc1ccc(Nc2nc(N)nc(CCl)n2)c(C)c1 | inconclusive: 3.55 µM [inhibitor, single point] | 
O=C(Nc1cccc(F)c1)C1CCN(c2nnnn2-c2ccccc2)CC1 | inactive | 
CC(C)(C)NC(=O)NCc1cccnc1 |  | inactive: -8.23% [at 9.22 µM]
Cc1ccc(-c2noc(CSc3nnc(Cc4ccccc4)n3-c3cccc(C)c3)n2)cc1 | inconclusive: 35.5 µM [inhibitor, single point] | 
CCOC(=O)Cc1c(C)c2ccc(N(CC)CC)cc2oc1=O | inconclusive: 35.5 µM [inhibitor, single point] | 
CCOC(=O)c1sc(NC(=O)c2cccs2)cc1C | inactive | 
CCOc1ccc(-n2c(SCc3cc(=O)oc4cc(C)c(C(C)C)cc34)nnc2-c2cccnc2)cc1 | inconclusive: 0.562 µM [activator, full curve, poor fit] | 
COc1ccc(S(=O)(=O)Cc2ccc(C(=O)N3CCN(c4cccc(C)c4)C(C)C3)o2)cc1 (stereo not given) | inconclusive: 35.5 µM [inhibitor, single point] | 
Cc1ccc(N/N=C(\C#N)C(N)=S)cc1C | inconclusive: 12.6 µM [inhibitor, partial curve] | 
Fc1c(F)c(F)c(N/N=C/c2c[nH]c3ccccc23)c(F)c1F | inconclusive: 5.62 µM [activator, single point] | 
CS(=O)(=O)c1ncc(Cl)c(C(=O)Nc2ccc(N3CCOCC3)cc2)n1 | active: 11.2 µM | 
COc1cccc(NC(=O)c2ccc(S(=O)(=O)N(C)C)cc2)c1 | inactive | 
CC1(C)Cc2nc(Cl)c(C(N)=O)cc2CO1 |  | inactive: -9.75% [at 9.22 µM]
CC(C)CCOc1ccc(C(=O)CCNC(C)C(=O)O)cc1 (stereo not given) | inactive | 
Cc1cc(C)n(-c2ccc(C(=O)OCC(=O)Nc3ccc(S(=O)(=O)N4CCCCC4)cc3)cc2)n1 | inconclusive: 3.16 µM [inhibitor, partial curve, poor fit] | 
COCCSc1ccccc1C(=O)N1CCOCC1 | inconclusive: 5.62 µM [inhibitor, single point] | 
